Reference: the supplement of paper PMC12823440, “Inhibitors supercharge kinase turnover through native proteolytic circuits” (Nature, 2025)
The other results are listed elsewhere or left out. Hit calls seldom repeat between salt and free forms of one compound.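 Kinases, fused to nanoluciferase, were expressed in K562 cells; luminescence was measured every 4 h from 2 to 18 h as percent of control (DMSO = 100%, positive control = 0%). A time point is decreased if signal falls significantly (2 sigma). Hits were called by the authors by a rule that is not shown; the count of time points alone does not decide it.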

The chains behind the UniProt entries cited, without tags or fusion partners. Where a name states a change or a piece, a line headed by the entry shows the natural chain unless it says otherwise.
UniProt Q01974, whole entry: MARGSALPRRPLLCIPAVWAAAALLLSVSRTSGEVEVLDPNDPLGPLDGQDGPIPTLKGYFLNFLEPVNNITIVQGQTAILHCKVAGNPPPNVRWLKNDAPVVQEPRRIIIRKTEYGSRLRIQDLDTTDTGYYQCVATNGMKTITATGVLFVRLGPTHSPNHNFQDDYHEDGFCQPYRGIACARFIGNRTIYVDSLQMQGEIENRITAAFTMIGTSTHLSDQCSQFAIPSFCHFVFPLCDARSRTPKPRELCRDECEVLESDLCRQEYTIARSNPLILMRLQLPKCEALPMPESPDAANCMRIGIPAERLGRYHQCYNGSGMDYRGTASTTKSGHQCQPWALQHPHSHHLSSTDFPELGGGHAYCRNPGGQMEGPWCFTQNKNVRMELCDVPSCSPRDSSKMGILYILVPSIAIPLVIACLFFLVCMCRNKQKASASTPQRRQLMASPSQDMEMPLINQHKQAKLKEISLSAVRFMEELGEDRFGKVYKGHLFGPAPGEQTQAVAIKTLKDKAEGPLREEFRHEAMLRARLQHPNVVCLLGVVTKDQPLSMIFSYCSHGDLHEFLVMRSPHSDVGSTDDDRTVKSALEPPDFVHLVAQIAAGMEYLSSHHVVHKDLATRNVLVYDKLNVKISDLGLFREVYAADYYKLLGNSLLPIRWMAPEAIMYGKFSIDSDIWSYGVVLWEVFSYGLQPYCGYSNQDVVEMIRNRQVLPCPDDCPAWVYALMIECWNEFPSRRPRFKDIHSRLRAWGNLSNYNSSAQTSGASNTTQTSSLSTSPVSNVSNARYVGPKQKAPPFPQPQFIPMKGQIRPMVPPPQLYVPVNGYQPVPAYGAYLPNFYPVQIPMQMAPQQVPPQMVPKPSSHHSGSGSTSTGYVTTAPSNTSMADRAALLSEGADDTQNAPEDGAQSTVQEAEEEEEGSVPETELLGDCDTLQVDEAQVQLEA
UniProt Q15418, whole entry: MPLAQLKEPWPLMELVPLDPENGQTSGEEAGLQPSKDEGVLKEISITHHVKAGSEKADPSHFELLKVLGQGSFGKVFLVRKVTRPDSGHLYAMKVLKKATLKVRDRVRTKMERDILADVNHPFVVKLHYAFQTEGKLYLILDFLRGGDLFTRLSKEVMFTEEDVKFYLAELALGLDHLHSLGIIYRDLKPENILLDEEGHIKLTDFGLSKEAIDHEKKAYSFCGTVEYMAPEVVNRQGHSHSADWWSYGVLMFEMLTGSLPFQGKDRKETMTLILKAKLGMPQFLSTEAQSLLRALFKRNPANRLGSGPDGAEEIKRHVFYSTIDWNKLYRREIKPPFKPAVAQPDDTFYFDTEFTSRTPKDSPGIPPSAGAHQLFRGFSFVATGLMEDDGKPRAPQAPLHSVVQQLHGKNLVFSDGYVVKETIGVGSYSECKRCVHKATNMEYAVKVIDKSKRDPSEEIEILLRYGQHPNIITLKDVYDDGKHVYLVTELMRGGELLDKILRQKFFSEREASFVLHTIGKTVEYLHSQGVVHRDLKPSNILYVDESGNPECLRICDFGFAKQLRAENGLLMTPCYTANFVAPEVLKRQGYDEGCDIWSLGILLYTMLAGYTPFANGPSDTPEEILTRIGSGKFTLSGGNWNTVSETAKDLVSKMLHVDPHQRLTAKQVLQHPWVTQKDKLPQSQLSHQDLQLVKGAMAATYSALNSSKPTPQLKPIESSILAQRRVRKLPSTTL
UniProt Q9NYA1, whole entry: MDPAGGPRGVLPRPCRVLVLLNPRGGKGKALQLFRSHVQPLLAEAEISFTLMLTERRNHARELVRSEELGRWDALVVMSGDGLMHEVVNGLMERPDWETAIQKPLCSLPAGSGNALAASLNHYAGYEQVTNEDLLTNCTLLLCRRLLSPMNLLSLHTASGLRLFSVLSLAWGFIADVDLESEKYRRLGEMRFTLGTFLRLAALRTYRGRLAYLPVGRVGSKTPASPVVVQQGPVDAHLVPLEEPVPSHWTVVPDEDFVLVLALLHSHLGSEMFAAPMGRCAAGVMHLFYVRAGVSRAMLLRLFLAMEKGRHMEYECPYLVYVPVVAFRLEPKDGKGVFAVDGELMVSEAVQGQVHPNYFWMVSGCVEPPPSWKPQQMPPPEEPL
UniProt Q9Y6E0: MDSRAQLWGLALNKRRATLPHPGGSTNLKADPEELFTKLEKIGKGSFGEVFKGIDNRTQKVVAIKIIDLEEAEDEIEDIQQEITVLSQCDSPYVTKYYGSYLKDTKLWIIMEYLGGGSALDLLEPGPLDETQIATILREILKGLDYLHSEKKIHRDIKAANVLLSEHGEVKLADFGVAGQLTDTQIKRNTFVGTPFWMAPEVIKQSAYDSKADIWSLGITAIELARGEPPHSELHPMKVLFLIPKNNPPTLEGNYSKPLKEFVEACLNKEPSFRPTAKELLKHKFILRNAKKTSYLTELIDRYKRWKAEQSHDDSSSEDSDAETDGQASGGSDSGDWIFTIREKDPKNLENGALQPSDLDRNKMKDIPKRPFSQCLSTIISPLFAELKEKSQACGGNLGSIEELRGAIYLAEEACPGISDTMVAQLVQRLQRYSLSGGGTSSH
UniProt Q15208: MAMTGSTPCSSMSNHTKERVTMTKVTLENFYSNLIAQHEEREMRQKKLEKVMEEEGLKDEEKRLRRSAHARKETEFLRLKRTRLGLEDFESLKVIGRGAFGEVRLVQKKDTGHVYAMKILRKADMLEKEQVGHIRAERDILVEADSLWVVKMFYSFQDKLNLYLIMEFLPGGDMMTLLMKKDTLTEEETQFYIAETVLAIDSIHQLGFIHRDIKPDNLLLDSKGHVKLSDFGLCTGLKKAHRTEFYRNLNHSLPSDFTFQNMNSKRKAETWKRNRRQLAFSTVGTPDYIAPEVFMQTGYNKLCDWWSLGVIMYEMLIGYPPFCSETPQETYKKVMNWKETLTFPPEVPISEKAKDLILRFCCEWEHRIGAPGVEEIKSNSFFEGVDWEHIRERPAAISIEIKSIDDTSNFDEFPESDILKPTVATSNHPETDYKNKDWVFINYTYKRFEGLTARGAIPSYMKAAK
UniProt P29597: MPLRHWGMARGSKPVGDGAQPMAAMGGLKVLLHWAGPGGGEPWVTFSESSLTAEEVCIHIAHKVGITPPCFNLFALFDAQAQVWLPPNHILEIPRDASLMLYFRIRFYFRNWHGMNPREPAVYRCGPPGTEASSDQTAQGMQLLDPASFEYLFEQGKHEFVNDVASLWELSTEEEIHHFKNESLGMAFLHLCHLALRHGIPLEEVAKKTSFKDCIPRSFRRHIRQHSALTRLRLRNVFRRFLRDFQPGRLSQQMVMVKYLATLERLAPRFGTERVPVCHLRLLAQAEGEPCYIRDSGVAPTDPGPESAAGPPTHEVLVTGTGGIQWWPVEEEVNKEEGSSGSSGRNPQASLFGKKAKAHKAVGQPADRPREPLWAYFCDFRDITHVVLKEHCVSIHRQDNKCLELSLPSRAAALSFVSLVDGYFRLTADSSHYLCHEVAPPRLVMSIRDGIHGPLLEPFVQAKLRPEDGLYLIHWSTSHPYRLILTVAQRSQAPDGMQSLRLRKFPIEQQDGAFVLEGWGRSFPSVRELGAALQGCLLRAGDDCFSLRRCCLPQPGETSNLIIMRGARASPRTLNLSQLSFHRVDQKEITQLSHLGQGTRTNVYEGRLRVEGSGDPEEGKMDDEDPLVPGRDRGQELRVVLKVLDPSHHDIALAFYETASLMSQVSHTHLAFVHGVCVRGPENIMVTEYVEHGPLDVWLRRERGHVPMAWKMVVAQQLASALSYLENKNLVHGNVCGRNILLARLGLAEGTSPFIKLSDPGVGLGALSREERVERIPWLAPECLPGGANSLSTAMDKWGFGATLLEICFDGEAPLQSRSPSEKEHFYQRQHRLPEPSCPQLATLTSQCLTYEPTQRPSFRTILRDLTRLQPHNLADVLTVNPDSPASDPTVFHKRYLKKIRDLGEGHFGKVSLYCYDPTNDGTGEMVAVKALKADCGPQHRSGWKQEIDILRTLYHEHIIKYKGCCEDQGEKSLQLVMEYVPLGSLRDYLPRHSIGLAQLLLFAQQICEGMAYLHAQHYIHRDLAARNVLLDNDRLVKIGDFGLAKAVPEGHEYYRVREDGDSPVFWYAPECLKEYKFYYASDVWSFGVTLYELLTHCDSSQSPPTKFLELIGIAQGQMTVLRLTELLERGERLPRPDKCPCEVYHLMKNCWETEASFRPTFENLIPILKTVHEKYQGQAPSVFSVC
UniProt Q6PHR2: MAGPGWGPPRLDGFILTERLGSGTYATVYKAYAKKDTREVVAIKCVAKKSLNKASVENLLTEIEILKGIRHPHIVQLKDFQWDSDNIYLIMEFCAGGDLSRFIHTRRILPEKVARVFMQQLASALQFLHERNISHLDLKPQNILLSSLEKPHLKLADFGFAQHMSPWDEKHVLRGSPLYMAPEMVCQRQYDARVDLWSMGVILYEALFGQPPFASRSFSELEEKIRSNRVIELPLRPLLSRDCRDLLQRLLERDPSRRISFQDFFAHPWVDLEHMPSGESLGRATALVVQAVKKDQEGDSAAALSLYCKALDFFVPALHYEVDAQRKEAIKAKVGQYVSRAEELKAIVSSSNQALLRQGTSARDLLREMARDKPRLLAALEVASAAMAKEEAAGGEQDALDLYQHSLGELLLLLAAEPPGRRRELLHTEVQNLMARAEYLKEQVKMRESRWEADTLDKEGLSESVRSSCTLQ
UniProt P07947, whole entry, looked up: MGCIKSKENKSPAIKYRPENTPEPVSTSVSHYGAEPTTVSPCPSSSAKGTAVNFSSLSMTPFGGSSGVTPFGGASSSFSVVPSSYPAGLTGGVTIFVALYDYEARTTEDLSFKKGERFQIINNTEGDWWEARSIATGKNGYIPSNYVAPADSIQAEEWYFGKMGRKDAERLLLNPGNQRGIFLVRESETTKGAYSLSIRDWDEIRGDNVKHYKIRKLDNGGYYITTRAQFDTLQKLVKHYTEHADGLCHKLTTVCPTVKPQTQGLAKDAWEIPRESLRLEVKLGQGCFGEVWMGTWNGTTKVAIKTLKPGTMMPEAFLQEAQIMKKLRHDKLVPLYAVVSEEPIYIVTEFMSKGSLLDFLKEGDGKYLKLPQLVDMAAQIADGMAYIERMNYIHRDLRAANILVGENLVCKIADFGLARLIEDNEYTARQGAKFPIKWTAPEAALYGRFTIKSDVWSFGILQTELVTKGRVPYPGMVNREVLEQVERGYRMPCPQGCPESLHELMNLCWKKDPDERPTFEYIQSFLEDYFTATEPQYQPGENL
UniProt P43403: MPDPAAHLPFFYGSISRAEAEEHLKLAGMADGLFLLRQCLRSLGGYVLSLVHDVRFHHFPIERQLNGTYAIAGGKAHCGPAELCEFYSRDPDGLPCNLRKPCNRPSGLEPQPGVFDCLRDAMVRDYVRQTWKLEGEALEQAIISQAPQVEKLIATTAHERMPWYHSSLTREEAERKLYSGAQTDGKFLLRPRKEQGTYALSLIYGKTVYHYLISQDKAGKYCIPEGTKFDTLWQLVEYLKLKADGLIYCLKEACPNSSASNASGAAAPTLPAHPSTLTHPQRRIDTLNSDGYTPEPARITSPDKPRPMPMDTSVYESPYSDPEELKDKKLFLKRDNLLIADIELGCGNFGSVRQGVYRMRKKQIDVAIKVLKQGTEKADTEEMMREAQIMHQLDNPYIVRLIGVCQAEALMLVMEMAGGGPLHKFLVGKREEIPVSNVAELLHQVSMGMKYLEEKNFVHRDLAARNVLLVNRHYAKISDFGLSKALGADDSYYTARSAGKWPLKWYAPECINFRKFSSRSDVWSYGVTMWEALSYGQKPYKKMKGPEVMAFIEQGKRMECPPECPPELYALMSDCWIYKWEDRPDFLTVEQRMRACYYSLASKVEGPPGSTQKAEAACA
UniProt P50613: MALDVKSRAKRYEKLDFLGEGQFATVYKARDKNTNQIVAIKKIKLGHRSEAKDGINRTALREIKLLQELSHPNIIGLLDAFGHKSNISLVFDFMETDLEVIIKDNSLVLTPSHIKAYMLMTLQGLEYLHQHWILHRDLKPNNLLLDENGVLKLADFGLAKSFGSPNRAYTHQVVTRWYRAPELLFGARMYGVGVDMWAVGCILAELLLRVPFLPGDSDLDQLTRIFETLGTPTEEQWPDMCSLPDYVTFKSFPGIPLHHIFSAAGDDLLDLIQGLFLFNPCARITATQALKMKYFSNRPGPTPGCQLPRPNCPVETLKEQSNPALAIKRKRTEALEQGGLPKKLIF
UniProt P50750, whole entry: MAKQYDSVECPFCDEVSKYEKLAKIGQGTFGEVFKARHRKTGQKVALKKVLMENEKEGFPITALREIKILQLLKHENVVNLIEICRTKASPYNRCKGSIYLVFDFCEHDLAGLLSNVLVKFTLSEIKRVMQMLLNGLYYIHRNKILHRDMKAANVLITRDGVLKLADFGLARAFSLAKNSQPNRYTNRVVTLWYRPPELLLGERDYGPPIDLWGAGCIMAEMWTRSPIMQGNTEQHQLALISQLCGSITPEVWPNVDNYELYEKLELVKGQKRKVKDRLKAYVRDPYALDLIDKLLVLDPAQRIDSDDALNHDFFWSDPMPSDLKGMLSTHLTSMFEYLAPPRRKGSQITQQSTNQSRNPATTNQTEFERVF

Columns and labels:
Settings in all cases: K562; 2-18 h
ROR2 = ROR2 (UniProt Q01974); experiment: number of time points (of 5) at which kinase-Nluc abundance scored as decreased, DMSO-normalised (count); higher = more persistent destabilization
RPS6KA1 = RPS6KA1 (UniProt Q15418); experiment: as above
SPHK1 = SPHK1 (UniProt Q9NYA1); experiment: as above
SRC = SRC (UniProt P12931); experiment: as above
STK24 = STK24 (UniProt Q9Y6E0); experiment: as above
STK38 = STK38 (UniProt Q15208); experiment: as above
SYK = SYK (UniProt P43405); experiment: as above
TEC = TEC (UniProt P42680); experiment: as above
TYK2 = TYK2 (UniProt P29597); experiment: as above
ULK3 = ULK3 (UniProt Q6PHR2); experiment: as above
YES1 = YES1 (UniProt P07947); experiment: as above
ZAK = ZAK (UniProt Q9NYL2); experiment: as above
ZAP70 = ZAP70 (UniProt P43403); experiment: as above
CDK4 = CDK4 (UniProt P11802); experiment: number of time points (of 4; 2 h point missing) at which kinase-Nluc abundance scored as decreased, DMSO-normalised (count); higher = more persistent destabilization
CDK7 = CDK7 (UniProt P50613); experiment: as above
CDK9 = CDK9 (UniProt P50750); experiment: as above

Measured: number of time points

O=C(C#Cc1ccccc1)c1cccc([N+](=O)[O-])c1 (10 µM)
0: ROR2 | RPS6KA1 | SPHK1 | SRC | STK24 | STK38 | SYK | TEC | TYK2 | ULK3 | YES1 | ZAK | ZAP70 | CDK4 | CDK7 | CDK9

O=C(NC[C@H](O)CO)c1ccncc1Nc1ccc(I)cc1F [Pimasertib] (10 µM)
1: STK38 | TYK2 | ULK3 | CDK7
0: ROR2 | RPS6KA1 | SPHK1 | SRC | STK24 | SYK | TEC | YES1 | ZAK | ZAP70 | CDK4 | CDK9

COc1ccc(Cl)cc1N(CC(=O)Nc1ccc2c(c1)OCO2)S(=O)(=O)c1ccccc1 (2.5 µM)
0: ROR2 | RPS6KA1 | SPHK1 | SRC | STK24 | STK38 | SYK | TEC | TYK2 | ULK3 | YES1 | ZAK | ZAP70 | CDK4 | CDK7 | CDK9

COc1cc2c(cc1OC)[C@@H]1C(=O)c3ccc4c(c3O[C@@H]1CO2)C=CC(C)(C)O4 [Deguelin] (10 µM)
0: ROR2 | RPS6KA1 | SPHK1 | SRC | STK24 | STK38 | SYK | TEC | TYK2 | ULK3 | YES1 | ZAK | ZAP70 | CDK4 | CDK7 | CDK9

COc1cc(N2CCC(N3CCN(C)CC3)CC2)ccc1Nc1ncnc(Nc2ccccc2S(=O)(=O)C(C)C)n1 (10 µM)
0: ROR2 | RPS6KA1 | SPHK1 | SRC | STK24 | STK38 | SYK | TEC | TYK2 | ULK3 | YES1 | ZAK | ZAP70 | CDK4 | CDK7 | CDK9

Three structures already listed, sorted by number of heavy atoms, high to low:
COc1cc(N2CCC(N3CCN(C)CC3)CC2)ccc1Nc1ncnc(Nc2ccccc2S(=O)(=O)C(C)C)n1 (10 µM)
0: ROR2 | RPS6KA1 | SPHK1 | SRC | STK24 | STK38 | SYK | TEC | TYK2 | ULK3 | YES1 | ZAK | ZAP70 | CDK4 | CDK7 | CDK9

COc1ccc(Cl)cc1N(CC(=O)Nc1ccc2c(c1)OCO2)S(=O)(=O)c1ccccc1 (2.5 µM)
0: ROR2 | RPS6KA1 | SPHK1 | SRC | STK24 | STK38 | SYK | TEC | TYK2 | ULK3 | YES1 | ZAK | ZAP70 | CDK4 | CDK7 | CDK9

O=C(NC[C@H](O)CO)c1ccncc1Nc1ccc(I)cc1F [Pimasertib] (10 µM)
1: STK38 | TYK2 | ULK3 | CDK7
0: ROR2 | RPS6KA1 | SPHK1 | SRC | STK24 | SYK | TEC | YES1 | ZAK | ZAP70 | CDK4 | CDK9

More entries follow.

Cc1ccc(C2CC(=O)NC(SCC(=O)Nc3nccs3)=C2C#N)cc1 (centres undefined) [Necrostatin-34] (10 µM)
0: ROR2 | RPS6KA1 | SPHK1 | SRC | STK24 | STK38 | SYK | TEC | TYK2 | ULK3 | YES1 | ZAK | ZAP70 | CDK4 | CDK7 | CDK9

CC(C)(C)S(=O)(=O)c1cc2c(Nc3ccc4scnc4c3)ncnc2cc1OCCOP(=O)(O)O (2 µM)
0: ROR2 | RPS6KA1 | SPHK1 | SRC | STK24 | STK38 | SYK | TEC | TYK2 | ULK3 | YES1 | ZAK | ZAP70 | CDK4 | CDK7 | CDK9

Cc1ccc2c(NS(=O)(=O)c3ccccc3Cl)cccc2c1Oc1ncccc1-c1ccnc(N[C@H]2CCCNC2)n1 (2.5 µM)
0: ROR2 | RPS6KA1 | SPHK1 | SRC | STK24 | STK38 | SYK | TEC | TYK2 | ULK3 | YES1 | ZAK | ZAP70 | CDK4 | CDK7 | CDK9

CNCc1cc(Oc2ccc3c(ccn3C(=O)Nc3cc(C(F)(F)F)n(C)n3)c2)ncn1 [Acrizanib] (10 µM)
0: ROR2 | RPS6KA1 | SPHK1 | SRC | STK24 | STK38 | SYK | TEC | TYK2 | ULK3 | YES1 | ZAK | ZAP70 | CDK4 | CDK9
1: CDK7

CC(C)n1cnc2c(Nc3cccc(Cl)c3)nc(N[C@H]3CCCC[C@@H]3N)nc21 (2.5 µM)
0: ROR2 | RPS6KA1 | SPHK1 | SRC | STK24 | STK38 | SYK | TEC | TYK2 | ULK3 | YES1 | ZAK | ZAP70 | CDK4 | CDK7 | CDK9

Cc1cccc(CC(=O)N2CCc3c2ccc(-c2cn(C)c4ncnc(N)c24)c3F)n1 (10 µM)
0: ROR2 | RPS6KA1 | SRC | STK24 | STK38 | SYK | TEC | TYK2 | ULK3 | YES1 | ZAK | ZAP70 | CDK4 | CDK7 | CDK9
5: SPHK1

CN(C)c1ccc(/C=C2\C(=O)Nc3ccccc32)c2ccccc12 (10 µM)
0: ROR2 | RPS6KA1 | STK24 | STK38 | TEC | TYK2 | ULK3 | YES1 | ZAK | ZAP70 | CDK4 | CDK9
1: SRC | SYK | CDK7
2: SPHK1

CCC(F)(F)c1cc(N2CCC(S(C)(=O)=O)CC2)nc2sc(C(N)=O)c(N)c12 (10 µM)
0: ROR2 | RPS6KA1 | SPHK1 | SRC | STK24 | STK38 | SYK | TEC | TYK2 | ULK3 | YES1 | ZAK | ZAP70 | CDK4 | CDK7 | CDK9

C[C@H](Nc1cc2c(-c3ccc4c(c3)OCO4)noc2cn1)c1ccccc1 (10 µM)
1: CDK4
0: ROR2 | RPS6KA1 | SPHK1 | SRC | STK24 | STK38 | SYK | TEC | TYK2 | ULK3 | YES1 | ZAK | ZAP70 | CDK7 | CDK9
